Test results from patent publication US20250249092A1 (TORAY INDUSTRIES, published 2025).
Results are given in words; binding and its absence hold for the method and conditions named. Some entries that bind do so weakly or less than the wild type.

T1: CAPRIN-1 protein (UniProt Q14444)
T1 sequence (looked up): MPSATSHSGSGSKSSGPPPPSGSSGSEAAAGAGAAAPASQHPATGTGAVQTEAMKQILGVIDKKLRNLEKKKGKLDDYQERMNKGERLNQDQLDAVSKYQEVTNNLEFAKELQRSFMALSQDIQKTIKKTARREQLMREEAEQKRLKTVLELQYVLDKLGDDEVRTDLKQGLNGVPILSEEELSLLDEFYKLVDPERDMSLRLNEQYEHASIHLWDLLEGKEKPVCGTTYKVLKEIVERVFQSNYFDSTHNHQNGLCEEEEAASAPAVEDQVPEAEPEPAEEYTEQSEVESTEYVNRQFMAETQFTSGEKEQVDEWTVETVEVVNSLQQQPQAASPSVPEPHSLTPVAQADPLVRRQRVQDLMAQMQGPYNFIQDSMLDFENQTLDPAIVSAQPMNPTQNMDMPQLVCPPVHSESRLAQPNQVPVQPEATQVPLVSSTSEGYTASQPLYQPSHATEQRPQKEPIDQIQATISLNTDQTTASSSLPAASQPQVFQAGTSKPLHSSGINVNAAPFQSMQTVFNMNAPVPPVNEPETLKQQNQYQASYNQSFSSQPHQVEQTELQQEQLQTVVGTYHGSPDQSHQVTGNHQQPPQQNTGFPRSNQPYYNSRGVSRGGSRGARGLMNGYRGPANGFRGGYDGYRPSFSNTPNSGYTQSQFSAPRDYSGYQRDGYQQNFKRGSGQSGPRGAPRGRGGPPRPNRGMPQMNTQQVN

T2: CAPRIN-1 protein on the cell membrane surface of cancer cells (UniProt Q14444)
T2 sequence (looked up): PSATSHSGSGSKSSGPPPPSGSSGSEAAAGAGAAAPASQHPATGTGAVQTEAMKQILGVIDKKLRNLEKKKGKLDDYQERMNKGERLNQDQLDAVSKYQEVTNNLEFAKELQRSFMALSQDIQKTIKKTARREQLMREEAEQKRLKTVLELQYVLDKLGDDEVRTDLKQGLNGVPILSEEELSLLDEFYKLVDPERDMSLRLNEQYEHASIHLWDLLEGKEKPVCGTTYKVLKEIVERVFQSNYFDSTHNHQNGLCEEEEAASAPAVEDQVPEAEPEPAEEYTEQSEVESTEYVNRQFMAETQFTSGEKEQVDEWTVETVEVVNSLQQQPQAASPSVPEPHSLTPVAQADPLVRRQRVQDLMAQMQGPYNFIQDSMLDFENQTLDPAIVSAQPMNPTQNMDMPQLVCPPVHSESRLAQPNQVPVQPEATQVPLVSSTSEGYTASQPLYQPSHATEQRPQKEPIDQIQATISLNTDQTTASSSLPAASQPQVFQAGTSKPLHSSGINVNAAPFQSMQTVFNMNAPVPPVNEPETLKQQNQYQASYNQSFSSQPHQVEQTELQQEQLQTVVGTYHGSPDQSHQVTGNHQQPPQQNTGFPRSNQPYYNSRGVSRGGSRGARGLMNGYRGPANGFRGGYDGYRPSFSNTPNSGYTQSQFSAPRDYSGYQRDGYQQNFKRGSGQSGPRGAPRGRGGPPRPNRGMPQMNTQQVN


Key:
CAPRIN-1 protein = target: T1, CAPRIN-1 protein; assay: ELISA
[1] = target: T2, CAPRIN-1 protein on the cell membrane surface of cancer cells; assay: flow cytometry

Row | binding (CAPRIN-1 protein) | binding [1] | Binder
1 | binds | binds | Conjugate 240 (antibody, V domains shown) VH: EVQLVESGGGLVQPGGSLRLSCAASGFSLSSHSLGWVRQAPGKGLEWIGDIRSGGSAYYANWAKGRFTISRDNSKNTLYLQMNSLRAEDTAVYFCTRTNGPSDLTNRLDLWGQGTLVTVSS VL: EIVLTQSPSSLSASVGDRVTINCQASQSLYNNENLAWFQQKPGKVPKRLIYGASTLASGVSSRFSGSGSGTEFTLTISNLQPEDFATYYCLGEFSCGSADCFAFGGGTKVEIK
2 | binds | binds | Conjugate 38 (antibody, human IgG1, V domains shown) VH: EQSLVESGGGLVQPGGSLRLSCAASGFSLSSHSLGWVRQAPGKGLEWIGDIRSGGSAYYANWAKGRFTISRDNSKNTLYLQMNSLRAEDTAVYYCTRTNGPSDLTNRLDLWGQGTLVTVSS VL: QVLTQSPSSLSASVGDRVTINCQASQSLYNNENLAWFQQKPGKVPKRLIYGASTLASGVSSRFSGSGSGTEFTLTISSLQCEDFAIYYCLGEFSCGSADCFAFGGGTKVEIK
3 | binds | binds | Conjugate 242 (antibody, V domains shown) VH: EVQLVESGGGLVQPGGSLRLSCAASGFSLSSHSLGWVRQAPGKGLEWIGDIRSGGSAYYANWAKGRFTISRDNSKNTLYLQMNSLRAEDTAVYFCTRTNGPSDLTNRLDLWGQGTLVTVSS VL: EQVLTQSPSSLSASVGDRVTINCQASQSLYNNENLAWFQQKPGKVPKRLIYGASTLASGVSSRFSGSGSGTEFTLTISNLQPEDFAIYYCLGEFSCGSADCFAFGGGTKVEIK
4 | binds | binds | Conjugate 241 (antibody, V domains shown) VH: EVQLVESGGGLVQPGGSLRLSCAASGFSLSSHSLGWVRQAPGKGLEWIGDIRSGGSAYYANWAKGRFTISRDNSKNTLYLQMNSLRAEDTAVYYCTRTNGPSDLTNRLDLWGQGTLVTVSS VL: EIVLTQSPSSLSASVGDRVTINCQASQSLYNNENLAWFQQKPGKVPKRLIYGASTLASGVSSRFSGSGSGTEFTLTISNLQPEDFATYYCLGEFSCGSADCFAFGGGTKVEIK
5 | binds | binds | Conjugate 42 (antibody, human IgG1, V domains shown) VH: EQSLVESGGGLVQPGGSLRLSCAASGFSLSSHSLGWVRQAPGKGLEWIGDIRSGGSAYYANWAKGRFTISRDNSKNTLYLQMNSLRAEDTAVYYCTRTNGPSDLTNRLDLWGQGTLVTVSS VL: QVLTQSPSSLSASVGDRVTINCQASQSLYNNENLAWFQQKPGKVPKRLIYGASTLASGVSSRFSGSGSGTEFTLTISSLQCEDFAIYYCLGEFSCGSADCFAFGGGTKVEIK
